Data: PubChem BioAssay AID540276 (National Center for Advancing Translational Sciences (NCATS), 2011)
Values joined by “and” are separate entries in the source; they are usually repeats but may differ in a detail not shown here. Equal values may be shown once. About 5,400 (1.8%) of roughly 300,000 compounds were called active. The inconclusive results got no clear call from the source; some entries with a clear call stand among them for comparison. The call rests on the fitted dose curve; tested in HEK293 cells. A potency beside an inconclusive call is a rough fit, not a confirmed value.

experiment: qHTS for inhibitors of binding or entry into cells for Marburg Virus; conditions: Marburg virus pseudotyped entry inhibition, cell reporter; activity change, negative = inhibition: at 37.8 µM (top of the series) unless noted
On the % scale 0 is the no-effect control and ±100 the full control effect; potency means the concentration at half of the fitted maximal effect.

SMILES	Potency	activity change, negative = inhibition
Cc1ccc(-c2ccc(CN3C(CC(C)C)C(=O)N(Cc4cn(Cc5ccco5)nn4)CCS3(=O)=O)cc2)cc1 (configuration not stated)	inconclusive: 12.5 µM [inhibitor, partial curve, poor fit]	
CC(=O)C1CCC2C3CC=C4CC(SC(=N)N)CCC4(C)C3CCC12C (configuration not stated)	active: 11.2 µM	
Brc1ccc(-c2csc(-c3c[nH]c4ccccc34)n2)cc1	inconclusive: 5.01 µM [activator, partial curve]	
Cc1nnc(C)c2c(C)n(-c3ccc(Cl)c(N)c3)c(C)c12	inconclusive: 35.5 µM [inhibitor, single point]	
Cc1onc(C(=O)NN)c1-c1csc(COc2ccc(Cl)cc2)n1	inconclusive: 35.5 µM [inhibitor, single point]	
N/C(CS(=O)(=O)c1ccccn1)=N\OC(=O)c1ccc(Cl)cc1	inconclusive: 0.501 µM [activator, partial curve, poor fit]	
Cc1cccc(-n2c(CNC(=O)c3cccc(F)c3)nnc2SCC(=O)Nc2ccccc2F)c1	inconclusive: 28.2 µM [inhibitor, single point]	
CC(=NCC1CCCO1)c1c(O)n(C)c(=O)n(C)c1=O (configuration not stated)	inactive	
COc1cc(C(=O)OCC(=O)c2cc(C)n(C)c2C)cc(OC)c1OC	inconclusive: 11.6 µM [inhibitor, single point]	
N#CC1=C(N)NC(SCC(=O)O)=C(C#N)C12CCCC2	inactive	
O=S(=O)([N-]c1nc2ccccc2nc1-[n+]1ccc(-c2ccncc2)cc1)c1ccccc1	inactive	
CCCCc1ccc(NC(=S)N2CCN(C(=O)OCC)CC2)cc1	inactive	
COc1ccccc1N(C)S(=O)(=O)c1ccc(Cl)c(C(=O)OCc2c(C)noc2C)c1	inconclusive: 16.4 µM [inhibitor, partial curve, poor fit]	
O=C(C1CCN(S(=O)(=O)Cc2ccccc2)CC1)N1CCN(c2cccc(C(F)(F)F)c2)CC1	inactive	
CCOC(=O)NC(Nc1sc2c(c1C(=O)OC)CCN(C)C2)(C(F)(F)F)C(F)(F)F	inactive	
CC(C)CC(c1nnnn1C1CCCC1)N1CCN(c2ccccc2F)CC1 (configuration not stated)	inconclusive: 7.94 µM [inhibitor, partial curve]	
Fc1cccc(-c2nnn3c2nc(NC2CCCCC2)c2ccccc23)c1		inconclusive: 34.7% [activator] [at 46.1 µM]
Cc1ccc(C(=O)NC(=S)NNS(=O)(=O)c2ccc(C)cc2)cc1	inactive	
CCNC(=S)/N=C(\N)Nc1nc(C)c2cc(C)ccc2n1	inconclusive: 31.6 µM [inhibitor, single point]	
COc1ccc2c(c1)nc(N)n2Cc1ccccc1	inconclusive: 10 µM [inhibitor, partial curve, poor fit]	
COc1ccc(S(=O)(=O)Nc2cc3c4c(c2)C(C)C(=O)N4CCC3)cc1OC (configuration not stated)	inactive	

Shown bar-delimited: 2 of the compounds above.
SMILES | Potency | activity change, negative = inhibition
CC(=NCC1CCCO1)c1c(O)n(C)c(=O)n(C)c1=O (configuration not stated) | inactive | 
COc1cc(C(=O)OCC(=O)c2cc(C)n(C)c2C)cc(OC)c1OC | inconclusive: 11.6 µM [inhibitor, single point] | 

(further entries)

SMILES	Potency	activity change, negative = inhibition
Cc1oc(C(=O)O)cc1CSc1nnc(-c2ccccc2)n1C	inconclusive: 35.5 µM [activator, single point]	
O=[N+]([O-])c1cccc2c(Br)[nH]nc12	inconclusive: 2.31 µM [activator, partial curve] and inconclusive: 6.31 µM [inhibitor, single point]	
CN(C)C(=O)CSc1nnc(C23CC4CC(CC(C4)C2)C3)o1	inconclusive: 0.206 µM [activator, full curve, poor fit]	
CCN(C(=O)COC(=O)c1cccn1C)C1CCS(=O)(=O)C1 (configuration not stated)	inconclusive: 4.47 µM [activator, full curve, poor fit]	
Nc1[nH]nc2c1NN(c1ccc(Cl)cc1Cl)N2	inconclusive: 32.6 µM [inhibitor, partial curve, poor fit]	
c1ccc(CSc2ccc3nnc(-c4ccccn4)n3n2)cc1	inconclusive: 0.0891 µM [inhibitor, full curve, poor fit]	
CCN(CC)c1ccc(NC(=O)c2ccc(NC(=O)C3CCCO3)cc2)c(C)c1 (configuration not stated)	inactive	
COc1ccc(N(Cc2cc3cccc(C)c3[nH]c2=O)C(=O)c2cccc(Cl)c2)cc1	inconclusive: 35.5 µM [inhibitor, single point]	
C/C(=N\NC(=S)Nc1ccccc1)C1Cc2ccccc2C(=O)O1 (configuration not stated)	inactive	
O=C(NNC(=O)c1sccc1-n1cccc1)c1ccc(F)cc1	inactive	
O=C(N/N=C/c1cc([N+](=O)[O-])ccc1O)Nc1ccccc1	inconclusive: 22.4 µM [inhibitor, partial curve, poor fit]	
CN(CC(=O)Nc1ccc(Cl)cc1)C(=O)CNC(=O)c1ccc2c(c1)OCO2	inconclusive: 15.8 µM [inhibitor, single point]	
O=C(N/N=C/c1cccc([N+](=O)[O-])c1)c1cc2ccccc2o1	inconclusive: 4.47 µM [activator, full curve, poor fit]	
COc1cc(S(=O)(=O)NCCc2c(C)[nH]c3ccccc23)c(C)cc1C	inconclusive: 35.5 µM [inhibitor, single point]	
O=C(COc1ccccc1Cc1ccccc1)Nc1cccc(S(=O)(=O)N2CCOCC2)c1	inconclusive: 35.5 µM [inhibitor, single point]	
c1c2c(cc3sc(N4CCOCC4)nc13)OCO2	inconclusive: 29.1 µM [inhibitor, single point]	
Cc1ccc(S(=O)(=O)N[C@H](C(=O)OCC(=O)N2N=C(c3ccc(Cl)cc3)CC2c2ccco2)C(C)C)cc1 (some centres not stated)	inactive and inconclusive: 22.4 µM [inhibitor, single point]	
CC(C)(C)CNc1cc(N2CCOCC2)ccc1[N+](=O)[O-]	inconclusive: 35.5 µM [inhibitor, single point]	
CCNc1nc(NCC)n2c(SC(C(=O)Nc3cc(C)ccc3C)c3ccccc3)nnc2n1 (configuration not stated)	inactive	
Cc1cccc(NC(=O)c2ccc(C3SCC(=O)N3CCc3ccccc3)cc2)c1 (configuration not stated)	inconclusive: 14.1 µM [inhibitor, partial curve, poor fit]	
CC1CCCCN1C(=O)c1cc(-c2ccc(Br)cc2)on1 (configuration not stated)	inconclusive: 2.24 µM [activator, full curve]	
